Experimental data reported in US20260125455A1.
No constants are given. Whether binding was seen depends on the method and setting. Binding calls can cover weak binding; strength is not graded here.

Assays:
[1] = molecular target: C6Δ1-79: SP_79-934_10xHis (human); experiment: ELISA, wells coated with the C6 construct, 1C9 detected with HRP goat anti-mouse IgG; duplicate wells
[2] = molecular target: C6: 1-934_10xHis (human); experiment: as above
[3] = molecular target: Protein G (Octet biosensors); experiment: BLI (Octet RED384), loading on biosensors

Row | binding [1] | binding [2] | binding [3] | Binder
1 | binds | binds | – | MoC601 MoG1K (mouse anti-C6 monoclonal antibody 1C9) (antibody, V domains shown) VH: QVQLQQSGAELVKPGASVKISCKASGYAFSDYWMNWVKQRPGKGLEWIGQIYPGDDDTNYNGKFKGKATLTADKSSSTAYMQLSSLTSEDSAVYFCAREGYYGYTYVEYFDVWGTGTTVTVSS VL: QIVLTQSPAIMSVSPGEKVTLTCSASSSVSYMHWYQQKSGTSPKRWIYDTSKLASGVPARFSGSGSGTSYSLTISSMEAEDAATYYCQQWTSNPLTFGAGTKLELR
2 | – | – | binds | MoC601 HuG4K (chimeric C601 antibody) (antibody, human IgG4 S228P, kappa, V domains shown) VH: QVQLQQSGAELVKPGASVKISCKASGYAFSDYWMNWVKQRPGKGLEWIGQIYPGDDDTNYNGKFKGKATLTADKSSSTAYMQLSSLTSEDSAVYFCAREGYYGYTYVEYFDVWGTGTTVTVSS VL: QIVLTQSPAIMSVSPGEKVTLTCSASSSVSYMHWYQQKSGTSPKRWIYDTSKLASGVPARFSGSGSGTSYSLTISSMEAEDAATYYCQQWTSNPLTFGAGTKLELRR
